The supplement of paper PMC10849652
The list shows a part of the results.

Sequences of proteins named here, by UniProt entry; tags and fusion partners are left off. A change or cut given only in a name is not applied to a line headed by its entry.
UniProt Q9BQ69: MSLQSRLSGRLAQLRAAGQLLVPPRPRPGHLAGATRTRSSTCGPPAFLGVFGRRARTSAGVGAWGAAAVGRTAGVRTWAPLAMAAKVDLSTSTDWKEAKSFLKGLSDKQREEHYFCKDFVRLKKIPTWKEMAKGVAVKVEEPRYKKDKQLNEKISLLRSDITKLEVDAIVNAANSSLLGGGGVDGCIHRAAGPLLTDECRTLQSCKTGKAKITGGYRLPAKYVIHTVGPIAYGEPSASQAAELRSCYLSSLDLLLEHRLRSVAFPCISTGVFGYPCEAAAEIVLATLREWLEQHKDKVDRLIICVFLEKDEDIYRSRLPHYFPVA
UniProt P27361, whole entry, looked up: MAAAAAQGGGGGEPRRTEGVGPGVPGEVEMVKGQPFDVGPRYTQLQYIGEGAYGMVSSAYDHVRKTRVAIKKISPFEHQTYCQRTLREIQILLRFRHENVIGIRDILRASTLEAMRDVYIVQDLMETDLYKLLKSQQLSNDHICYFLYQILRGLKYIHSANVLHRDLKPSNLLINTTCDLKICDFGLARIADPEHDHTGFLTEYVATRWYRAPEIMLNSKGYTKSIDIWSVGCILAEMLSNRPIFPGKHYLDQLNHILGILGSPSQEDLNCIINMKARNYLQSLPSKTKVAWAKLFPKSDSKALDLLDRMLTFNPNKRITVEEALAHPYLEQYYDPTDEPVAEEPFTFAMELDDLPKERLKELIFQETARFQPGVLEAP
UniProt Q9H063: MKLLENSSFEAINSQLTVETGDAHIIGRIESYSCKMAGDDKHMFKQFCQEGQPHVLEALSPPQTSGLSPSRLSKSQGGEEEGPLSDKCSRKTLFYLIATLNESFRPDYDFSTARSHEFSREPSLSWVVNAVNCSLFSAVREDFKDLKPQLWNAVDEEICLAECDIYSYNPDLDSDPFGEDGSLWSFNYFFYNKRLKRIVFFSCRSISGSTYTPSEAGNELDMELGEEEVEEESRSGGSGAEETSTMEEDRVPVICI
UniProt Q96S90: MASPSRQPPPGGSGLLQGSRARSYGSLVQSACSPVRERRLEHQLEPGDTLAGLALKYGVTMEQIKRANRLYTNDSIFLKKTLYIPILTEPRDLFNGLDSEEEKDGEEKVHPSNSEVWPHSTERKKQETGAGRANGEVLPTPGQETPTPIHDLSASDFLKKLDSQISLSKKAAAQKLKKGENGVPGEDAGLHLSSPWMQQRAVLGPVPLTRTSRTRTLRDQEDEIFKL
UniProt O95232: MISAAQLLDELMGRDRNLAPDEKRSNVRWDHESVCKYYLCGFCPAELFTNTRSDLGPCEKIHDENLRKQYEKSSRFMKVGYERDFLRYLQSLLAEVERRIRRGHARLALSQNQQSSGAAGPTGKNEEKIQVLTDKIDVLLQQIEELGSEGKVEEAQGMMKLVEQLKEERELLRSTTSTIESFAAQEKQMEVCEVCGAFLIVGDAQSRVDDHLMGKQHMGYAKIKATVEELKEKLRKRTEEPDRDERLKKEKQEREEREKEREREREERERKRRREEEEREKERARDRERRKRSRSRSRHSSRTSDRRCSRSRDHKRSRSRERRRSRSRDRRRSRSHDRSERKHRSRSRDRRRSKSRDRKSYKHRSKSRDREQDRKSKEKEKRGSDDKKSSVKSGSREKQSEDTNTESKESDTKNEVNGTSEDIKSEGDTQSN
UniProt P33908: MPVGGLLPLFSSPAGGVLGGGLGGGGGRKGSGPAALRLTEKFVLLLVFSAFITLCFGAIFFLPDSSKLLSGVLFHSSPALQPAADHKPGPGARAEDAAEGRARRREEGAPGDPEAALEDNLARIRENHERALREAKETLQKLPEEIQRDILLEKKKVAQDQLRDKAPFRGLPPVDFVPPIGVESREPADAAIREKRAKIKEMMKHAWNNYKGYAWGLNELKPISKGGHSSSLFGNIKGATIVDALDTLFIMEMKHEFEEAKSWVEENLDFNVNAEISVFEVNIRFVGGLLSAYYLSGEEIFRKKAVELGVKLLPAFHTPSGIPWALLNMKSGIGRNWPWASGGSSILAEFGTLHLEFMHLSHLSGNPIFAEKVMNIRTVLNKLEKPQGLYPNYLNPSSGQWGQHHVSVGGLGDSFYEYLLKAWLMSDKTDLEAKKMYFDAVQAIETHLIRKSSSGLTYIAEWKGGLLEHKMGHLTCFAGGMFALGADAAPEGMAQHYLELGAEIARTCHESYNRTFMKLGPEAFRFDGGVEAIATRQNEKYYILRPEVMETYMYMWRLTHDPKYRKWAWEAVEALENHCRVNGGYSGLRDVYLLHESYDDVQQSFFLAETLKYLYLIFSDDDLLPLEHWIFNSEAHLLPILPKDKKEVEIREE
UniProt Q6ZN28: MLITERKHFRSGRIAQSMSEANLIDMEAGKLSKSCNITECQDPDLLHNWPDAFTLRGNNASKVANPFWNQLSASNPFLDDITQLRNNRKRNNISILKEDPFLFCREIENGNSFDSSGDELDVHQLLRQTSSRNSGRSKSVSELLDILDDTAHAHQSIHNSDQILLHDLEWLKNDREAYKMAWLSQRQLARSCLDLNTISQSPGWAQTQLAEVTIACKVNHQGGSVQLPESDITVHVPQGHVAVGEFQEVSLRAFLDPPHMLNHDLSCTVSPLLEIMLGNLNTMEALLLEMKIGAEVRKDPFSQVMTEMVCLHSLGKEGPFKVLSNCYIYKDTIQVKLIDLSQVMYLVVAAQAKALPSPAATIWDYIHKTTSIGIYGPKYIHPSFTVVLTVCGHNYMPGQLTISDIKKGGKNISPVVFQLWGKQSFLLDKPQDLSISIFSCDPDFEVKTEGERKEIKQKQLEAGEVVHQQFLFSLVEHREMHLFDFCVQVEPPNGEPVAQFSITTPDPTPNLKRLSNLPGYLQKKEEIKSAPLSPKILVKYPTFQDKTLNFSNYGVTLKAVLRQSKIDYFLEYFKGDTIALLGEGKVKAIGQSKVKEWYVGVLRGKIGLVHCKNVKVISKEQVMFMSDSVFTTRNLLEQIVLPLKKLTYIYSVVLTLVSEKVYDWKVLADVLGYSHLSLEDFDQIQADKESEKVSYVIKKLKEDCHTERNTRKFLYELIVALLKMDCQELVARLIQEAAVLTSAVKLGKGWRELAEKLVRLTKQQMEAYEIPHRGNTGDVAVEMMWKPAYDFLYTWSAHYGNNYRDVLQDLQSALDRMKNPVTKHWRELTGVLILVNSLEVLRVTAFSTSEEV
UniProt Q96A72, whole entry, looked up: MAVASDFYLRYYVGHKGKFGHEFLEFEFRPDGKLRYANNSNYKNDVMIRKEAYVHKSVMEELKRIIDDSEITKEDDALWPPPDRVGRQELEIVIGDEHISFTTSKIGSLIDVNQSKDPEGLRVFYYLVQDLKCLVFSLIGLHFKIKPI
UniProt Q8IV50: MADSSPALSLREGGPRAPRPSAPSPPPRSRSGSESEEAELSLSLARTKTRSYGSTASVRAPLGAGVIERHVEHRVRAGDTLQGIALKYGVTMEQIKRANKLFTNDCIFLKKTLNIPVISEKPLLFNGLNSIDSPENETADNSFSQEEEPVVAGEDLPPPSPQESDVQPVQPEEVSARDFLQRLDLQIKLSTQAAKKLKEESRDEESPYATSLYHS
UniProt P49641: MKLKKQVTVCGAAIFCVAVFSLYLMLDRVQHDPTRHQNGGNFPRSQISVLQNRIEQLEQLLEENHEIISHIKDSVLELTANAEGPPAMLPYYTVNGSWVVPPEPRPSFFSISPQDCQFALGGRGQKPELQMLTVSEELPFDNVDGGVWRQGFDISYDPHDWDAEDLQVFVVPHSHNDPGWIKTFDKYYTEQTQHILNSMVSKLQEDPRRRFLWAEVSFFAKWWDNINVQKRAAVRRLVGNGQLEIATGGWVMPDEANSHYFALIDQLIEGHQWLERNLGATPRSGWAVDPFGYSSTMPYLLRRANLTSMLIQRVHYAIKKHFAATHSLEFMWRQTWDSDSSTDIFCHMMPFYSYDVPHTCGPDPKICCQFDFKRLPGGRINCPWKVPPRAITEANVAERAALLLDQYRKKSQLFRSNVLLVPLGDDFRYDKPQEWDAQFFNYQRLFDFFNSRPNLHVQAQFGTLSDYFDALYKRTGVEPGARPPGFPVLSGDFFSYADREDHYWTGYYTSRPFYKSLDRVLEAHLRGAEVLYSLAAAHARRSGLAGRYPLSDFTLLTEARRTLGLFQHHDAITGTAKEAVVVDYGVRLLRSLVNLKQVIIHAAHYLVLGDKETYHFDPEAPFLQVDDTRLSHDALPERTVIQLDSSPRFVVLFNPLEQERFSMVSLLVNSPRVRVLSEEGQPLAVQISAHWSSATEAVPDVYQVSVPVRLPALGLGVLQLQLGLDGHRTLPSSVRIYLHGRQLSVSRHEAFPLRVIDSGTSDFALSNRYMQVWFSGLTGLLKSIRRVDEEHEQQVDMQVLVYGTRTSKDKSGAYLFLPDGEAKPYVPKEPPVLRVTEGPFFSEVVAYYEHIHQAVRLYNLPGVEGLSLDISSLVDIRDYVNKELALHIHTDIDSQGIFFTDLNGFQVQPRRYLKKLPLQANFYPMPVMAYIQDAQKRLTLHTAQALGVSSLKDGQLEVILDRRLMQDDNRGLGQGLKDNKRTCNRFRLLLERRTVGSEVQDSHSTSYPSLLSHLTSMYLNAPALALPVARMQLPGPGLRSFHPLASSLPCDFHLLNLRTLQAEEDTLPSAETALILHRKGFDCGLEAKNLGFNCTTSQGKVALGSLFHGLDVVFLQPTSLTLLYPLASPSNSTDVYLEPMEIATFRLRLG
UniProt Q16659, whole entry, looked up: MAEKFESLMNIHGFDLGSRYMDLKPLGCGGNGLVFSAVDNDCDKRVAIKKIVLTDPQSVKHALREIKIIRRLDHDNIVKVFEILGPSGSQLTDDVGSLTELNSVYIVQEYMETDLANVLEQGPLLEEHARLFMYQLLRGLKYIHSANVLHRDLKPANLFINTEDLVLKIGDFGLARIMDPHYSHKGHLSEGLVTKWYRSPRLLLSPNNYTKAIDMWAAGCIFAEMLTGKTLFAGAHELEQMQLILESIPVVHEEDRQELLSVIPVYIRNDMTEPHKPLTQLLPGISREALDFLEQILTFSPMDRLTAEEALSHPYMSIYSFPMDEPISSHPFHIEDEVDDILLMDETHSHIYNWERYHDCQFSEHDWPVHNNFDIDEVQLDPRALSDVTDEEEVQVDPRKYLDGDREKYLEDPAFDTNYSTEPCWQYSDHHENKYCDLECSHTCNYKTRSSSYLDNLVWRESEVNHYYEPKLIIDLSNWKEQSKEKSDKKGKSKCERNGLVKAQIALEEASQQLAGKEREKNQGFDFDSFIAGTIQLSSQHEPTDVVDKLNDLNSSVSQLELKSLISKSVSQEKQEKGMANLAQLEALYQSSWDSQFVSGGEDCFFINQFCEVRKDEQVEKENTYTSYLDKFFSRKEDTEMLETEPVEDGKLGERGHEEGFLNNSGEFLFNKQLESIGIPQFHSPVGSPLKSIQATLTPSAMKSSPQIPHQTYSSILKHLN
UniProt Q9NTJ4: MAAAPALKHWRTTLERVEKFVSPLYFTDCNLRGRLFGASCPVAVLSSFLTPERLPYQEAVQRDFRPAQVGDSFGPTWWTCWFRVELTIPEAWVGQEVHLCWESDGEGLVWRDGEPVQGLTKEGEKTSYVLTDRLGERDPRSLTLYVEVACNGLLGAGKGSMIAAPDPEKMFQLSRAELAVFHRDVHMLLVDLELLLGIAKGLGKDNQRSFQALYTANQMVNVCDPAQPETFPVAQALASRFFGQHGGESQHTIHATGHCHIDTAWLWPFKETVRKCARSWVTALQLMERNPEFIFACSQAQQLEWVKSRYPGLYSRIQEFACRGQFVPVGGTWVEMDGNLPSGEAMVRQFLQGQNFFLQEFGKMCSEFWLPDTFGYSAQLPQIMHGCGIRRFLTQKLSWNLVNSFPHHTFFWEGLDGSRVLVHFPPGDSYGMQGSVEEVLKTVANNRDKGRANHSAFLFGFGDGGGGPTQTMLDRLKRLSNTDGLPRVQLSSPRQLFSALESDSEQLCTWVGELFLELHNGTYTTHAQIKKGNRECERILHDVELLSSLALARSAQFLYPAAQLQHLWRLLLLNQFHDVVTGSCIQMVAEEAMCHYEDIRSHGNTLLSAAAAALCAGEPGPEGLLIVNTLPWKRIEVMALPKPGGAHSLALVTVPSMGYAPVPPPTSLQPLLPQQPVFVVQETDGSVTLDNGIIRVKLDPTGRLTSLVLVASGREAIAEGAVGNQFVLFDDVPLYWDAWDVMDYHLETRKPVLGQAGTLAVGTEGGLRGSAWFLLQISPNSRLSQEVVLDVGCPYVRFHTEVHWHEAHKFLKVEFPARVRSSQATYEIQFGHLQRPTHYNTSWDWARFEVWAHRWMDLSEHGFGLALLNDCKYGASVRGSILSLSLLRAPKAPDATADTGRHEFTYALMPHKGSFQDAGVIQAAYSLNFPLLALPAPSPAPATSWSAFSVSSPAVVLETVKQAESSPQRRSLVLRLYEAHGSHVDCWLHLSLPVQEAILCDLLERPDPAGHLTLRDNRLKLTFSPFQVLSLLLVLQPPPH
UniProt P55145: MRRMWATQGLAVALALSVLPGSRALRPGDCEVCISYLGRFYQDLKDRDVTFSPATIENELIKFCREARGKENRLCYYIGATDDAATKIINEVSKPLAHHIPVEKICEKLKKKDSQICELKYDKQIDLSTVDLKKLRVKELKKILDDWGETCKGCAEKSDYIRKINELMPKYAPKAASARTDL

How the values were obtained:
Assay in all cases: log2 fold change, soluble protein after heating vs DMSO (PISA); higher = thermal stabilisation; K562 lysate, 10 uM; active = over 0.2 and 3.5 SD of the protein, either way, in both replicates (recomputed)
alvocidib = compound: CN1CC[C@H](c2c(O)cc(O)c3c(=O)cc(-c4ccccc4Cl)oc23)[C@H](O)C1 [alvocidib]
How it was run: (§1)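 Thermal stability, expressed as log-two fold change relative to solvent controls, is given from duplicates. Crude K562 extract in PBS pH 7.4 with 1 mM MgCl2, at 1 mg/mL protein, was treated with 10 μM compound for 30 min and heated in aliquots for 3 min across 48°C-58°C. After pooling, adjustment to 0.5% NP-40 at 4°C and centrifugation at 21,000xg for 90 min, supernatant protein was measured by TMTpro 16plex LC-MS/MS with channel sums equalised.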

Tubastatin A = compound: CN1CCc2c(c3ccccc3n2Cc2ccc(C(=O)NO)cc2)C1 [Tubastatin A]
How it was run: as §1

[1] = compound: CNC(=O)C1=CC=CC=C1NC2=NC(=NC=C2Cl)NC3=C(C=C(C=C3)N4CCOCC4)OC
How it was run: as §1

defactinib = compound: CNC(=O)c1ccc(Nc2ncc(C(F)(F)F)c(NCc3nccnc3N(C)S(C)(=O)=O)n2)cc1 [defactinib]
How it was run: as §1

[2] = compound: CNc1nc(-c2ccc3c(N)n[nH]c3c2)cc(N2C[C@@H](C(=O)NC3CCCCC3)CC[C@H]2C)n1
How it was run: as §1

encorafenib = compound: COC(=O)N[C@@H](C)CNc1nccc(-c2cn(C(C)C)nc2-c2cc(Cl)cc(NS(C)(=O)=O)c2F)n1 [encorafenib]
How it was run: as §1

[3] = compound: COC(=O)[C@H](CCSC)NC(=O)C1=C(C=C(C=C1)NC[C@H](CS)N)C2=CC=CC=C2
How it was run: as §1

alisertib = compound: COc1cc(Nc2ncc3c(n2)-c2ccc(Cl)cc2C(c2c(F)cccc2OC)=NC3)ccc1C(=O)O [alisertib]
How it was run: as §1

[4] = compound: COc1cc2nc(-c3cc(F)ccc3O)nc(N[C@@H]3CNC[C@H]3C(C)(C)O)c2cc1OC
How it was run: as §1

gefitinib = compound: COc1cc2ncnc(Nc3ccc(F)c(Cl)c3)c2cc1OCCCN1CCOCC1 [gefitinib]
How it was run: as §1

Target	log2 fold change (alvocidib)	log2 fold change (Tubastatin A)	log2 fold change [1]	log2 fold change (defactinib)	log2 fold change [2]	log2 fold change (encorafenib)	log2 fold change [3]	log2 fold change (alisertib)	log2 fold change [4]	log2 fold change (gefitinib)
MACF1 (UniProt H3BQK9)	inactive: 0.003	inactive: -0.065	inactive: 0.01	inactive: 0.029	inactive: 0.022	inactive: 0.016	inactive: 0.04	inactive: 0.014	inactive: 0.023	inactive: 0
MACROD1 (UniProt Q9BQ69)	inactive: 0.12	inactive: -0.104	inactive: 0.012	inactive: 0.039	inactive: 0.015	inactive: 0.029	inactive: -0.074	inactive: -0.037	inactive: -0.001	inactive: 0.033
MAPK3 (UniProt P27361)	inactive: 0.018	inactive: 0.037	active: 0.29	inactive: 0.061	inactive: 0.079	inactive: -0.035	inactive: 0.05	inactive: -0.028	inactive: 0.052	inactive: -0.018
MAF1 (UniProt Q9H063)	inactive: 0.116	inactive: -0.144	inactive: -0.01	inactive: 0.032	inactive: -0.119	inactive: -0.011	inactive: -0.028	inactive: -0.038	inactive: -0.031	inactive: -0.035
LYSMD1 (UniProt Q96S90)	inactive: -0.031	inactive: 0.022	inactive: 0.028	inactive: 0.021	inactive: 0.052	inactive: 0.018	inactive: -0.061	inactive: 0.052	inactive: -0.017	inactive: 0.018
LUC7L3 (UniProt O95232)	inactive: -0.137	inactive: 0.031	inactive: -0.023	inactive: -0.032	inactive: 0.064	inactive: -0.012	inactive: -0.024	inactive: -0.024	inactive: 0.009	inactive: 0.021
LYPLAL1 (UniProt Q5VWZ2)	inactive: 0.008	inactive: 0.044	inactive: -0.035	inactive: -0.028	inactive: 0.023	inactive: -0.025	inactive: -0.024	inactive: -0.014	inactive: 0.01	inactive: -0.029
MAT2A (UniProt P31153)	inactive: -0.018	inactive: 0.056	inactive: -0.009	inactive: -0.019	inactive: -0.018	inactive: -0.041	inactive: -0.003	inactive: -0.013	inactive: 0.009	inactive: 0.01
MAN1A1 (UniProt P33908)	inactive: -0.015	inactive: 0.001	inactive: 0.049	inactive: 0.006	inactive: -0.104	inactive: 0.005	inactive: -0.001	inactive: -0.021	inactive: -0.001	inactive: 0.029
M6PR (UniProt P20645)	inactive: -0.031	inactive: 0.076	inactive: 0.004	inactive: -0.061	inactive: -0.004	inactive: -0.026	inactive: -0.056	inactive: -0.018	inactive: 0.014	inactive: 0.032
MAST4 (UniProt O15021)	inactive: 0.042	inactive: -0.11	inactive: 0.394	inactive: 0.282	inactive: -0.173	inactive: -0.036	inactive: 0.006	inactive: -0.043	inactive: 0.032	inactive: -0.066
MACC1 (UniProt Q6ZN28)	inactive: 0.049	inactive: -0.052	inactive: 0.021	inactive: -0.029	inactive: -0.031	inactive: 0.023	inactive: 0.026	inactive: 0.038	inactive: 0.019	inactive: 0
MAP4K5 (UniProt Q9Y4K4)	inactive: 0.045	inactive: -0.021	inactive: 0.068	inactive: 0.125	inactive: -0.006	inactive: 0.009	inactive: -0.191	inactive: -0.027	inactive: 0.189	inactive: 0.086
MAPK14 (UniProt Q16539)	inactive: 0.007	inactive: -0.203	inactive: 0.38	inactive: -0.053	inactive: -0.043	inactive: 0.488	inactive: 0.314	inactive: -0.144	inactive: 0.011	inactive: 0.295
LYN (UniProt P07948)	inactive: 0.026	inactive: -0.046	inactive: 0.203	inactive: 0.076	inactive: -0.092	inactive: -0.01	inactive: -0.072	inactive: 0.171	inactive: 0.26	inactive: -0.006
MAP2K1 (UniProt Q02750)	inactive: 0.06	inactive: -0.011	inactive: 0.066	inactive: 0.013	inactive: 0.028	inactive: -0.07	inactive: -0.063	inactive: -0.036	inactive: 0.021	inactive: 0.029
MAGOHB (UniProt Q96A72)	inactive: -0.001	inactive: -0.015	inactive: -0.018	inactive: -0.047	inactive: -0.008	inactive: -0.05	inactive: -0.036	inactive: 0.041	inactive: -0.019	inactive: 0.005
LYSMD2 (UniProt Q8IV50)	inactive: 0.005	inactive: -0.042	inactive: 0.056	inactive: 0.029	inactive: 0	inactive: 0.002	inactive: -0.044	inactive: 0.025	inactive: -0.026	inactive: 0.046
LUC7L (UniProt Q9NQ29)	active: -0.259	inactive: 0.015	inactive: -0.117	inactive: -0.075	inactive: 0.002	inactive: 0.065	inactive: -0.039	inactive: 0.033	inactive: 0.01	inactive: 0.037
MAN2A2 (UniProt P49641)	inactive: 0.051	inactive: 0.021	inactive: 0.013	inactive: -0.087	inactive: -0.014	inactive: 0.053	inactive: -0.037	inactive: 0.005	inactive: -0.01	inactive: 0.022
MAP3K7 (UniProt O43318)	inactive: 0.004	inactive: -0.023	inactive: 0.047	inactive: 0.014	inactive: 0.061	inactive: 0.024	inactive: -0.036	inactive: 0.014	inactive: 0.01	inactive: 0
MARS (UniProt P56192)	inactive: 0.015	inactive: -0.095	inactive: 0.018	inactive: 0.008	inactive: -0.031	inactive: -0.012	inactive: 0.118	inactive: 0.026	inactive: 0.011	inactive: -0.048
MAPK6 (UniProt Q16659)	inactive: 0.133	inactive: -0.086	inactive: 0.115	inactive: 0.049	inactive: -0.023	inactive: -0.037	inactive: -0.092	inactive: -0.001	inactive: 0.072	inactive: 0.113
MAGEC2 (UniProt Q9UBF1)	inactive: -0.046	inactive: -0.011	inactive: -0.018	inactive: 0	inactive: -0.05	inactive: 0.007	inactive: -0.037	inactive: -0.005	inactive: 0.001	inactive: 0.032
MARK3 (UniProt P27448)	inactive: -0.071	inactive: -0.119	inactive: -0.188	inactive: -0.158	inactive: 0.113	inactive: 0.038	inactive: 0.129	inactive: 0.006	inactive: 0.003	inactive: -0.02
MAN2C1 isoform 4 (UniProt Q9NTJ4)	inactive: -0.003	inactive: 0.017	inactive: 0.026	inactive: -0.046	inactive: 0.161	inactive: 0.075	inactive: -0.03	inactive: 0.076	inactive: -0.006	inactive: 0.051
LYZ (UniProt P61626)	inactive: -0.027	inactive: 0.607	inactive: 0.321	inactive: 0.043	inactive: -0.262	inactive: -0.229	inactive: 0.854	inactive: 0.018	inactive: 0.594	inactive: -0.011
MANF (UniProt P55145)	inactive: -0.008	inactive: 0.028	inactive: 0	inactive: -0.044	inactive: -0.046	inactive: -0.006	inactive: -0.083	inactive: 0.016	inactive: 0.01	inactive: 0.005
LZTR1 (UniProt Q8N653)	inactive: 0.178	inactive: -0.168	inactive: -0.001	inactive: -0.036	inactive: -0.012	inactive: -0.039	inactive: 0.174	inactive: -0.047	inactive: 0.137	inactive: 0.091
MAPK9 (UniProt P45984)	inactive: 0.028	inactive: -0.064	active: 0.44	inactive: 0.056	inactive: 0.006	inactive: 0.17	inactive: -0.019	inactive: -0.021	inactive: 0.006	inactive: 0.027

In another format: entries from further up
Target | log2 fold change (alvocidib) | log2 fold change (Tubastatin A) | log2 fold change [1] | log2 fold change (defactinib) | log2 fold change [2] | log2 fold change (encorafenib) | log2 fold change [3] | log2 fold change (alisertib) | log2 fold change [4] | log2 fold change (gefitinib)
MARK3 (UniProt P27448) | inactive: -0.071 | inactive: -0.119 | inactive: -0.188 | inactive: -0.158 | inactive: 0.113 | inactive: 0.038 | inactive: 0.129 | inactive: 0.006 | inactive: 0.003 | inactive: -0.02
MAN2C1 isoform 4 (UniProt Q9NTJ4) | inactive: -0.003 | inactive: 0.017 | inactive: 0.026 | inactive: -0.046 | inactive: 0.161 | inactive: 0.075 | inactive: -0.03 | inactive: 0.076 | inactive: -0.006 | inactive: 0.051
